PubChem BioAssay AID1259254, NCATS – 2017
Assay: 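Gene knock-downs that lead to re-replication, shown by excess G2 DNA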 (primary screen). Cells: human HCT116 colorectal cancer cells. Reagent: single siRNA against human genes. Time to read-out: 3 days. Measured: 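Imaged Hoechst DNA stain sorts each cell into a cycle phase by DNA amount; per plate, G2 fraction set to 0% for non-targeting and 100% for GMNN siRNA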. Direction: G2 robust z-score: higher = more G2 cells, more excess DNA replication. Hit rule: 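Active siRNAs have a G2 robust z of 5 or more median absolute deviations over the median, which in these data means about 38% or higher of GMNN control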.
Shown is an unselected part of about 59,000 reagents. Over the whole deposit, about 1,550 (2.6%) are marked active. 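G2 share is only a proxy for re-replication; each gene was hit by three separate siRNAs, and active genes were retested.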 Unmarked entries are inactive. The numbers tell different reagents against one gene apart. Not all columns of the deposit are shown. Not stated in the record: the amount of reagent.

{"gene":"TCERG1L","reagent":1,"G2 robust z-score":0.0751}
{"gene":"TCERG1L","reagent":2,"G2 robust z-score":-0.489}
{"gene":"TCERG1L","reagent":3,"G2 robust z-score":0.878}
{"gene":"MOB1B","reagent":1,"G2 robust z-score":1.69}
{"gene":"MOB1B","reagent":2,"G2 robust z-score":-0.362}
{"gene":"MOB1B","reagent":3,"G2 robust z-score":-0.787}

Part of the list above in another layout:
gene,reagent,G2 robust z-score
MOB1B,2,-0.362
MOB1B,3,-0.787

The listing continues:
{"gene":"SRPX2","reagent":1,"G2 robust z-score":-0.347}
{"gene":"SRPX2","reagent":2,"G2 robust z-score":0.064}
{"gene":"SRPX2","reagent":3,"G2 robust z-score":-0.989}
{"gene":"ZDHHC5","reagent":1,"G2 robust z-score":-0.272}
{"gene":"ZDHHC5","reagent":2,"G2 robust z-score":4.11}
{"gene":"ZDHHC5","reagent":3,"G2 robust z-score":-0.369}
